Data published in patent publication US20140017701A1, “CHIMERIC PDK1 KINASES” (priority 2011, published 2014).
Some results were stated once for a whole list of compounds, not compound by compound. For at least one compound, name, drawing or mass did not settle the structure.

System: PKCζ-dependent NFκB activation in U937 cells
Assay: PKCζ-dependent NFκB signaling in U937 cells (luciferase reporter, TNFα stimulation)
Format: cell-based
Details: 3 h pre-incubation, TNFα 50 ng/ml 90 min, read-out: IC50, inhibition of PKCζ-dependent NFκB activation
Protocol: In U937 lymphoma cells, tumor necrosis factor alpha (TNFα) dependent activation of NFκB is dependent on PKCζ activity (Folgueira, L. et al. J Virol 70, 223-31 (1996); Muller, G. et al. Embo J 14, 1961-9 (1995)). U937cells were transiently transfected with a plasmid encoding for luciferase under the control of NFκB response elements (pGL4.32 [luc2P/NF-κB-RE/Hygro], Promega). After serum starvation overnight, the cells were incubated in 96-well plates with the compounds or DMSO (0.25%) for 3 h and stimulated with TNFα (50 ng/ml, PeproTech) for 90 min. Bright-Glo Luciferase Assay reagent (Promega) was added and the luciferase activity measured using the multilabel reader station EnVision (Perkin Elmer).
U937 lymphoma cells were transiently transfected with a plasmid coding for luciferase under the control of the NFκB promoter. Upon stimulation of the cells with TNFα, an increase in luciferase activity is detected. In U937 cells, the NFκB signaling pathway is dependent on PKCζ activity (Muller, G. et al. Embo J 14, 1961-9 (1995)).

SMILES	IC50 [µM]
Cl.O=C(O)CC(Cc1nc2cc(-c3ccccc3)ccc2[nH]1)c1ccc(Cl)cc1 (centres unmarked) [PS168]	< 50
Cl.O=C(O)CC(Cc1nc2c(Cl)cc(Cl)cc2[nH]1)c1ccc(Cl)cc1 (centres unmarked) [PS171]	< 50
